# Library screening results

The values are deposited in ChEMBL (CHEMBL3988442, “University of Dundee, Small-Polar-MMV Screening Library” (2021)).

The filed quantity is “Percent Effect” (%). The controls that fix the scale are not given in the record; negative values are as filed. This is an unselected part of the compounds tested. A dash means the value is not listed here; it may have been measured.

A: 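Whole-cell assay for inhibitors of Mycobacterium tuberculosis growth, labelled Cornell in the record; the read-out is not stated. The concentration is filed as 10 mM, unlikely as a test dose, so the dose is not known. Higher means stronger inhibition (inferred from two other growth screens of the library). About 53,000 compounds were tested under these conditions; 1.7% (about 900) showed 50% or more at least once.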
B: 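Assay on Mycobacterium tuberculosis, filed only as a heat shock assay from Cornell; the read-out is not stated. The concentration is filed as 10 mM, unlikely as a test dose, so the dose is not known. Direction is inferred from retests: higher values go with stronger inhibition. Size under these conditions: about 69,000 compounds, about 930 of them at 50% or above in at least one test.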

| compound | A | B |
|---|---|---|
| `Cc1[nH]nc(CCC(=O)NCC2CCCN(C3CCCC3)C2)c1C` (configuration not stated) | -57.79 | 9.396 |
| `CCC(C)NC(=O)CN1CCOCC1` (configuration not stated) | -61.45 | 17.9 |
| `CN(c1ccccc1C(=O)O)S(=O)(=O)c1cccc2cccnc12` | - | -23.07 |
| `Cc1ccc(C(=O)N(Cc2ccccc2F)C2CC2)c(=O)[nH]1` | -25.74 | 9.869 |
| `COc1ccc(Cl)cc1CCNC(=O)NCc1cnn(C)c1C` | 34.81 | 2.191 |
| `COc1ccc(N2CCN(Cc3nc(CSC)no3)CC2=O)cc1` | 9.158 | -0.4358 |
| `CCN(CC)CCNS(=O)(=O)c1cccc(CSC)c1` | 5.575 | 2.403 |
| `CCn1cc2c(n1)CN(S(=O)(=O)c1cccnc1)CC2COC.O=C(O)C(F)(F)F` (configuration not stated) | -1.508 | -11.84 |
| `COc1cc(N2CCC3(CC2)CC(N2CCOCC2)CO3)ncn1` (configuration not stated) | - | -2.078 |
| `Cc1nc(N)ccc1CC1COc2ccccc2C1` (configuration not stated) | 9.198 | 0.7307 |
| `OC[C@H]1CCN(Cc2ccc3ccccc3n2)C[C@@H]1O` | -5.062 | 8.516 |
| `Cc1cccc(CSc2ncc(Br)c(C(=O)O)n2)c1` | 19.85 | 6.138 |
| `OC1(CN2CCCC2)COCCN(c2cc(C(F)(F)F)ccn2)C1` (configuration not stated) | - | -22.44 |
| `COc1ccc2cc(CN(C)CCc3cn[nH]c3)c(=O)[nH]c2c1` | 3.837 | 5.468 |
| `[H][C@]12CC[C@](O)(CC1)C(CO)N2C(=O)c1ccco1` (some centres not stated) | 1.029 | 34.52 |
| `CC(C)(C)NC(=O)CN1CCCN(Cc2cc(C#N)ccc2F)CC1` | 3.929 | -1.985 |
| `[H][C@]12CC[C@@H](N(C)c3cccnn3)[C@@]1([H])CN(Cc1cccc(C(=O)O)c1)C2` | -22.1 | 9.747 |
| `O=C(c1cccc(-c2ncc[nH]2)c1)N1CC[C@H](CO)[C@@H](O)C1` | 3.046 | 5.768 |
| `O=C(O)C(F)(F)F.O=C(O)C(F)(F)F.[H][C@@]12CN(Cc3cnn(C)c3)C[C@]1([H])OCCN2Cc1c(C)noc1C` | - | -27.24 |
| `Cc1nn(CCC(=O)N(C)Cc2c(Cl)cnn2C)cc1Br` | -5.671 | 7.385 |
| `CC(=O)Nc1ccc(CNC2CC(=O)N(Cc3cccc(F)c3)C2)cc1` (configuration not stated) | - | -13.37 |
| `Cc1noc(C)c1CCC(=O)N[C@@H]1CCC[C@@H](Oc2cccnc2)[C@@H]1O` | 2.051 | 13.07 |
| `CCc1nnc(CN(CC)C(=O)C2CCC(=O)N(C3CCCC3)C2)o1` (configuration not stated) | -25.33 | -0.473 |
| `CCC(C)(NCc1ncc(C(C)C)o1)c1nccs1` (configuration not stated) | -6.429 | -3.101 |
| `Cc1nn(C)c2c(N3CCN(C(=O)C4CC4)CC3)ncnc12` | - | -8.161 |
| `COc1ccccc1C(NC(=O)C1CCCC1)c1noc(C)n1` (configuration not stated) | - | -6.496 |
| `O=C(O)C(F)(F)F.O=C(O)C(F)(F)F.O=C(O)C(F)(F)F.[H][C@@]12CN(Cc3ccccn3)C[C@]1([H])OCCN2c1ccc(C)nn1` | 14.7 | 0.1076 |
| `CCN1C(=O)CCCC12CCCN(C(=O)c1cnccn1)C2` (configuration not stated) | 10.23 | -27.52 |
| `Cc1nc(CN(Cc2ccccc2)C2CCS(=O)(=O)C2)oc1C` (configuration not stated) | 7.858 | 6.985 |
| `Cc1cc(CC(C)Nc2nc(-c3cccnc3)nc3c2CNC3)[nH]n1` (configuration not stated) | -19.02 | 0.9109 |
| `CCc1nc(C)c(CC(=O)N2CCC3(CC2)OCCCC3OC)c(=O)[nH]1` (configuration not stated) | -2.622 | 2.507 |
| `O=C(NCCNC(=O)c1ccc(Br)cc1)c1ccc(O)cc1` | 30.72 | 35.45 |
| `CCn1nnc2cc(C(=O)N3CCCC3Cn3cc(C)cn3)ccc21` (configuration not stated) | 18.62 | 0.4429 |
| `CC(C)C(=O)N1CCN(CC(O)c2cc(Cl)ccc2Cl)CC1` (configuration not stated) | 11.03 | -7.42 |
| `COc1ccc(OC)c(C(C)Nc2nc3c(C)nn(C)c3c(=O)n2C)c1` (configuration not stated) | -10.78 | 11.07 |
| `CC(C)CN1CCc2[nH]cnc2C12CCN(C(=O)c1cc[nH]n1)CC2` | -2.349 | 5.728 |
| `Cc1nn(C)c(N2CCCN(C)CC2)c1CNC(=O)CC(C)(C)C` | 1.756 | 10.73 |
| `O=S(=O)(Cc1ccccc1)NCCNc1ccc(-n2cccc2)nn1` | 12.63 | -9.655 |
| `CN(Cc1ccccn1)C(=O)c1ccc2c(c1O)OC(C)(C)C2` | -28.1 | 1.432 |
| `O=C(O)C(F)(F)F.[H][C@]12C[C@@H](CN(C)C)N(C(C)=O)[C@@]1([H])CCN(C(=O)c1cnc(C)cn1)C2` | -18.76 | -17.11 |
| `COc1ccnc(N2CCN(C(=O)c3cnc(C4CC4)s3)CC2)n1` | - | -14.82 |
| `CN(C(=O)c1ccncc1)c1nnc(C2CCOC2)s1` (configuration not stated) | 25.46 | -4.797 |
| `[H][C@@]12CCN(C(C)=O)C[C@]1([H])[C@H](C(=O)Nc1cccnc1C)CCO2` | -5.652 | 12.66 |
| `O=C(NCCO)Nc1c(F)cc(F)cc1-c1ccccc1` | 2.163 | 8.88 |
| `Cc1nc(CNC(=O)Nc2ccc3c(c2)CCCC(=O)N3)sc1C` | 2.746 | 4.566 |
| `Cc1cc(NC(=O)CN2CCn3c(nnc3C3CC3)C2)on1` | - | -15.36 |
| `COc1ccc(S(=O)(=O)NC2(CC(N)=O)CCC2)cc1` | 7.217 | 10.92 |
| `Fc1ccccc1-c1noc2c1CN(CC1CC1)CC2` | -12.11 | 10.87 |
| `CC(C)N1CCC2(CC1)NC(=O)c1cc(Br)ccc1-n1nnnc12` | 12.25 | 16.15 |
| `Cc1ccc(=O)n(Cc2csc(N(C)C3CC3)n2)n1` | - | -7.375 |
| `CC(C)(C)C(=O)N1CCC(c2nc(O)cc(-c3ccccn3)n2)CC1` | -0.8036 | -31.31 |
| `O=C(NCC1CCCO1)C1CCN(Cc2nc(C3CC3)no2)CC1` (configuration not stated) | 30.59 | -9.499 |
| `CC(C)CC(C#N)NC(=O)COC1CCCCC1` (configuration not stated) | 6.734 | -23.99 |
| `CC(C)n1cc(N2Cc3nc(N4CCOCC4)ncc3C2=O)cn1` | - | -21.77 |

The first 6 entries again:

{"compound": "Cc1[nH]nc(CCC(=O)NCC2CCCN(C3CCCC3)C2)c1C", "stereo": "configuration not stated", "A": -57.79, "B": 9.396}
{"compound": "CCC(C)NC(=O)CN1CCOCC1", "stereo": "configuration not stated", "A": -61.45, "B": 17.9}
{"compound": "CN(c1ccccc1C(=O)O)S(=O)(=O)c1cccc2cccnc12", "B": -23.07}
{"compound": "Cc1ccc(C(=O)N(Cc2ccccc2F)C2CC2)c(=O)[nH]1", "A": -25.74, "B": 9.869}
{"compound": "COc1ccc(Cl)cc1CCNC(=O)NCc1cnn(C)c1C", "A": 34.81, "B": 2.191}
{"compound": "COc1ccc(N2CCN(Cc3nc(CSC)no3)CC2=O)cc1", "A": 9.158, "B": -0.4358}